In PubChem BioAssay AID1508644 (National Center for Advancing Translational Sciences (NCATS), 2021):
The shares of active, inactive and inconclusive entries below differ from those in the screen. Potencies of inconclusive entries are doubtful fits and often do not repeat. The source made the active and inactive calls. The call rests on the fitted dose curve; in most records, active means well fitted inhibition curve with a large enough effect; inconclusive means small, poorly fitted or top-dose-only effect; inactive means no such curve, though single readings can be large or run the other way.

Chains of the proteins cited; added tags and fusions are not shown. Lines headed by an entry give the natural chain unless they say otherwise; changes in a name come on top.
UniProt P25094: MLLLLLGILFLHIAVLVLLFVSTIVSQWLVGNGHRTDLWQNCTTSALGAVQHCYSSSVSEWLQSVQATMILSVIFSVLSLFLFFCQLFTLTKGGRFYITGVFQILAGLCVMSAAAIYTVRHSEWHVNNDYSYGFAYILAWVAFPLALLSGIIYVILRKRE

Target: Peripheral myelin protein 22 (Rattus norvegicus) (UniProt P25094)
Test: Cell-based HiBiT reporter assay to measure PMP22 protein expression in S16 Pmp22-HiBiT cells
Conditions: S16 Schwann Pmp22-HiBiT, NanoGlo luminescence, 48 h; activity change, negative = inhibition: at 27.9 µM (top of the series)
Text: Assay Provider: Jim Inglese Ph.D. National Center for Advancing Translational Science, National Institutes of Health, Rockville, MD CMT is a heterogeneous group of neurological disorders that affect approximately 1 in 2,500 people. In particular, the most common form of CMT, CMT1A is genetically linked to the duplication of the PMP22 gene which leads to Schwann cell overexpression, thus manifesting itself as a typical case of dose-sensitive diseases. To identify small molecule compounds that can mediate the expression of PMP22 we developed a phenotypic assay screening strategy by utilizing genome editing techniques to construct Schwann cell lines containing novel reporter technology to monitor the transcriptional or translational regulation of PMP22. For high sensitivity we use a bioluminescent reporter system embedded in the 3' UTR of the PMP22 gene (S16(c9) Pmp22-F2sN) to identify compounds that inhibit gene expression. […] We can further discriminate the effect of all transcriptionally active molecules on PMP22 translation or stability with an assay that incorporates a short NLuc peptide (HiBiT) at the C-terminus of expressed PMP22 (S16(f8) PMP22-HiBiT) allowing alpha complementation and luminescence detection of membrane-associated PMP22 protein. These assays were screened against the NCATS Sytravon Library Collection. Miniaturization of these assays to 1536-well plate format for quantitative high throughput screening (qHTS) yielded rich data sets immediately from the qHTS assay (S16(c9) Pmp22-F2sN), when compared with data from a cell viability assay (Cell TiterGlo) to identify compounds that decreased the output signals through cellular toxicity to streamline the selection process of actives for subsequent characterization using the HiBiT assay (S16(f8) PMP22-HiBiT).
Cell-based HiBiT reporter assay in S16 Pmp22-HiBiT cells PROTOCOL TABLE (format as described by Inglese J, Shamu CE and Guy RK. 2007) SEQUENCE No. (e.g., 1, 2, 3, etc.); PARAMETER (e.g., Cells, Incubation, Reagent, etc.); VALUE and DESCRIPTION. 1. Cells. Add 1,500 cells in 5 uL in growth media (DMEM High Glucose, No Phenol Red media + 10% heat-inactivated FBS + 1% Pen/Strep supplemented media) per well into Greiner 1536-well white/solid bottom high base, TC-treated plates. 2. Compounds. Library compounds and controls added at 23nL per well, transferred by Pin Tool. 3. Incubation. Incubate plates at 37C, 5% CO2, 95% RH for 48 h. 4. Media removal. Invert and centrifuge plates. 5. Reagent. Add 3uL NanoGlo HiBiT Lytic Detection Reagent per well of Greiner 1536-well plates. 6. Incubation. Incubate plates at room temperature for 15 min., protect from light. 7. Detector. NLuc luminescence measured using CCD-based camera (Viewlux). NOTES (numbers refer to Sequence numbers above; values are from representative experiments) 7. Luminescence Read: Clear filter; Exposure = 10 sec, Gain = High, Speed = Slow, Binning = 2X REFERENCES: 1. Inglese J, Shamu CE and Guy RK, Reporting data from high throughput screening of small molecule libraries, Nature Chemical Biology, 2007, 3(8): 438-441. doi.org/10.1038/nchembio0807-438 2. Yasgar A, Shinn P, Jadhav A, Auld DS, Michael S, Zheng W, Austin CP, Inglese J and Simeonov A, Compound Management for Quantitative High-Throughput Screening. J. Assoc. Lab. Auto., 2008, 13: 79-89. doi: 10.1016/j.jala.2007.12.004

Structure (SMILES) | Potency | activity change, negative = inhibition
Cc1ccc(NC(=O)Cn2c(=O)n(-c3ccc(C)cc3)c(=O)c3ccc(C(=O)NCc4ccccc4Cl)cc32)cc1 | inconclusive: 8.13 µM [inhibitor, partial curve] | –
CCc1nnc(NC(=O)c2nc(S(C)(=O)=O)ncc2Cl)s1 | active: 10.2 µM | –
CCC(=O)C1=C(c2cccc([N+](=O)[O-])c2)N(C(=O)CC)n2c(nnc2C2CCCCC2)S1 | inconclusive: 20.4 µM [inhibitor, single point] | –
Cc1ccc(CN2C(=O)C(O)(c3c(C)[nH]c4ccccc34)c3ccccc32)cc1 (stereo not given) | – | inactive: -24.2%
CCC(Sc1nc2ccccc2c2nc(-c3ccccc3)nn12)C(=O)Nc1cccc(OC)c1 (stereo not given) | inconclusive: 14.5 µM [inhibitor, partial curve, poor fit] | –
Cc1ccc(C)c(N2CCN(CCCNC(=O)Cn3c(-c4cccs4)cc4ccccc43)CC2)c1 | active: 7.24 µM | –
COc1ccc(Cl)cc1NC(=O)CCCS(=O)(=O)c1nc(-c2ccc(OC)c(OC)c2)cc(C(F)(F)F)n1 | inconclusive: 1.45 µM [inhibitor, full curve] | –
Cc1cc(C)c(NC(=O)Cn2c(=O)n(Cc3ccco3)c(=O)c3ccc(C(=O)NC4CCCC4)cc32)c(C)c1 | – | inactive: 9.98%
COc1cccc(-n2c(SCC(=O)c3ccc(Cl)cc3)nc3c([nH]c4ccccc43)c2=O)c1 | inconclusive: 4.07 µM [inhibitor, full curve] | –
Cc1ccc(S(=O)(=O)c2nnn3c2nc(NC2CCCCCC2)c2sccc23)cc1C | active: 14.5 µM | –
Cc1cccc(-n2c(=O)c3c(c4cc(C)ccc4n3C)n(CC(=O)NCCC3=CCCCC3)c2=O)c1 | – | inactive: -18.6%
COc1ccc(Nc2nc3c(S(=O)(=O)c4ccccc4)nnn3c3ccc(Cl)cc23)cc1 | – | inactive: -26.5%
CCOc1ccc(NC(=O)CSc2oc(-c3ccc(F)cc3)nc2S(=O)(=O)c2ccc(C)cc2)cc1 | – | inactive: -11.9%
Cc1ccc(CNC(=O)c2nc(S(=O)(=O)Cc3ccc(C)cc3)ncc2Cl)cc1 | inconclusive: 1.29 µM [inhibitor, partial curve] | –
Cc1ccc(C(=O)Nc2ccc(S(=O)(=O)N3CCC(c4nc5ccccc5s4)CC3)cc2)cc1 | – | inactive: -18.4%
COc1ccc(Br)c2c1-c1nc(NC(=O)c3cccc(C)c3)sc1C2 | inconclusive: 11.5 µM [inhibitor, partial curve] | –
COC(=O)CS(=O)(=O)c1nc2ccccc2nc1N1CCCCC1 | active: 14.5 µM | –
CCc1ccc(C(=O)c2cn(CC(=O)Nc3ccc4c(c3)OCO4)c3ccc(CC)cc3c2=O)cc1 | inconclusive: 3.24 µM [inhibitor, partial curve] | –
CCc1ccc(C(=O)c2cn(CC(=O)Nc3cc(OC)cc(OC)c3)c3ccc(CC)cc3c2=O)cc1 | inconclusive: 8.13 µM [inhibitor, partial curve] | –
Cc1c(Cl)cccc1NC(=O)c1oc2ccc(S(=O)(=O)N3CCC4(CC3)OCCO4)cc2c1C | – | inactive: 30.2%

Entries of single compounds, looked up by structure:
COc1ccc(Cl)cc1NC(=O)CCCS(=O)(=O)c1nc(-c2ccc(OC)c(OC)c2)cc(C(F)(F)F)n1 as listed: Potency: inconclusive: 1.45 µM [inhibitor, full curve]
CCc1ccc(C(=O)c2cn(CC(=O)Nc3cc(OC)cc(OC)c3)c3ccc(CC)cc3c2=O)cc1 as listed: Potency: inconclusive: 8.13 µM [inhibitor, partial curve]

The list continues.

Structure (SMILES) | Potency | activity change, negative = inhibition
Cc1ccc(C)c(NC(=O)Cn2c(=O)n(Cc3ccc4c(c3)OCO4)c(=O)c3ccc(C(=O)NC4CCCCC4)cc32)c1 | – | inactive: 10.8%
CCCCCS(=O)(=O)c1oc(-c2cccs2)nc1S(=O)(=O)c1ccc(C)cc1 | inconclusive: 16.2 µM [inhibitor, partial curve] | –
CCOc1cc(CNc2ccc(O)cc2)cc(Br)c1OCc1ccccc1 | inconclusive: 10.2 µM [inhibitor, partial curve] | –
O=C(Cn1c(-c2cccs2)cc2ccccc21)NCCCN1CCN(c2ccc(F)cc2)CC1 | active: 6.45 µM | –
Cc1ccc(NC(=O)CSc2nc3ccc(NC(=O)COc4ccc(C)cc4)cc3s2)cc1 | – | inconclusive: -33.7% [inhibitor]
COC(=O)c1c(-c2ccc(Cl)cc2)noc1N1CCN(c2ccccc2OC)CC1 | inconclusive: 10.2 µM [inhibitor, partial curve, poor fit] | –
Cc1cccc(CS(=O)(=O)c2ncc(Cl)c(C(=O)Nc3nc4ccc(F)cc4s3)n2)c1 | active: 3.63 µM | –
CCC(=O)C1=C(c2cccc([N+](=O)[O-])c2)N(C(=O)CC)n2c(nnc2-c2ccccc2)S1 | – | inconclusive: -32% [inhibitor]
COc1ccccc1Nc1nn2c(=O)c3ccc(C(=O)Nc4ccc(F)cc4)cc3nc2s1 | active: 9.12 µM | –
COC(=O)c1ccccc1NC(=O)c1nc(S(=O)(=O)Cc2cccc(C)c2)ncc1Cl | active: 6.45 µM | –
Clc1cccc(-c2noc3ncnc(NC4CCCCC4)c23)c1 | inconclusive: 8.13 µM [inhibitor, partial curve] | –
Cc1ccc(NC(=O)N2CCc3cc(S(=O)(=O)N4CCC(C)CC4)ccc32)cc1F | – | inactive: 10.6%
COC(=O)c1c(-c2ccc(Cl)cc2)noc1N1CCN(c2ccc(F)cc2)CC1 | inconclusive: 11.5 µM [inhibitor, partial curve] | –
CCCn1c(=N)c(C(=O)NC(C)c2ccccc2)cc2c(=O)n3ccccc3nc21 (stereo not given) | – | inactive: 23.9%
Cc1ccc(CNC(=O)c2ccc(Nc3nc4ccccc4n4nnnc34)cc2)cc1 | inconclusive: 8.13 µM [inhibitor, partial curve] | –
CCCCS(=O)(=O)c1nc(-c2ccc(Br)cc2)cc(-c2ccccc2)c1C#N | – | inactive: 100%
COc1ccc(N(CC(=O)Nc2cc(Cl)ccc2C)S(=O)(=O)c2c(C)noc2C)cc1 | inconclusive: 2.88 µM [inhibitor, full curve] | –
COc1ccc(CCNC(=O)Cn2c(-c3cccs3)cc3cc(F)ccc32)cc1OC | inconclusive: 3.63 µM [inhibitor, full curve] | –
CCN(CC)CCCNC(=O)CSc1c2c(nc3cc(Cl)ccc13)CCCC2 | inconclusive: 5.75 µM [inhibitor, full curve] | –
CCS(=O)(=O)c1ncc(Cl)c(C(=O)Nc2c(C(=O)c3ccc(C)cc3)oc3ccccc23)n1 | – | inactive: -7.57%
